Taken from: PubChem BioAssay AID686938 (Drosophila RNAi Screening Center, 2013)
Screen: 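Knock-downs reducing store-operated calcium influx in Drosophila cells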 (primary screen). System: Drosophila S2R+ cells. Reagents: long dsRNA against Drosophila genes, about 0.25 µg dsRNA per well, roughly 10,000 cells. Time to read-out: 5 days of knock-down before the calcium assay. Challenge: thapsigargin (SERCA pump blocker) to empty calcium stores; entry signal taken 4 min after adding it. Measured: 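Per-well fluo-4 fluorescence in two replicates, unnormalised, measured in resting cells and 4 min after store depletion by the SERCA blocker thapsigargin; ratio of the two present in few wells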. Direction: calcium entry signal: higher = stronger calcium signal after store depletion; resting calcium signal: higher = higher resting calcium signal. Units: calcium entry signal in fluorescence units; resting calcium signal in fluorescence units. Call rule: 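Hit if the duplicate-averaged plate z-score for entry over resting signal is under −3; wells with weak total dye signal (Fmax z < −2) or more than 5 off-targets removed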. Calls: active = strongly reduced calcium entry; inactive = no strong reduction.
The deposit covers about 23,000 reagents; shown is an unselected part of those with a known target gene and a result. In the full data, 75 (0.33%) were called active. 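Raw plate signals without normalisation; calls rest on plate z-scores that were not deposited; ratio present for only 364 wells.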 Not stated in the record: the dose of the treatment.

Silencing of CG31436 [DRSC14661] resulted in: calcium entry signal, replicate 1 = 3.68e7; calcium entry signal, replicate 2 = 4.33e7; resting calcium signal, replicate 1 = 2.12e7; resting calcium signal, replicate 2 = 1.71e7; inactive.
With knock-down of CG33080 [DRSC18080], the record shows calcium entry signal, replicate 1 = 3.44e7; calcium entry signal, replicate 2 = 5.43e7; resting calcium signal, replicate 1 = 1.71e7; resting calcium signal, replicate 2 = 2.33e7; inactive.
For CG33080 [DRSC18081], the values are calcium entry signal, replicate 1 = 3.38e7; calcium entry signal, replicate 2 = 4.42e7; resting calcium signal, replicate 1 = 1.61e7; resting calcium signal, replicate 2 = 2.04e7; inactive.
With knock-down of CG33080 [DRSC18285], the record shows calcium entry signal, replicate 1 = 3.81e7; calcium entry signal, replicate 2 = 3.67e7; resting calcium signal, replicate 1 = 1.70e7; resting calcium signal, replicate 2 = 1.57e7; inactive.
Against CG5245 [DRSC15750] the deposit lists calcium entry signal, replicate 1 = 4.49e7; calcium entry signal, replicate 2 = 3.68e7; resting calcium signal, replicate 1 = 2.20e7; resting calcium signal, replicate 2 = 1.89e7; inactive.
After knock-down of Spn43Ad [DRSC06770] the results were calcium entry signal, replicate 1 = 3.08e7; calcium entry signal, replicate 2 = 4.33e7; resting calcium signal, replicate 1 = 1.50e7; resting calcium signal, replicate 2 = 1.82e7; inactive.
Depletion of Roc2 [DRSC07313] resulted in: calcium entry signal, replicate 1 = 3.38e7; calcium entry signal, replicate 2 = 3.70e7; resting calcium signal, replicate 1 = 1.78e7; resting calcium signal, replicate 2 = 1.84e7; inactive.
After knock-down of CG7556 [DRSC20052], the record shows calcium entry signal, replicate 1 = 4.01e7; calcium entry signal, replicate 2 = 4.61e7; resting calcium signal, replicate 1 = 2.16e7; resting calcium signal, replicate 2 = 2.29e7; inactive.
Silencing of nAChRalpha7 [DRSC20078] came out at: calcium entry signal, replicate 1 = 4.34e7; calcium entry signal, replicate 2 = 4.42e7; resting calcium signal, replicate 1 = 2.23e7; resting calcium signal, replicate 2 = 1.88e7; inactive.
nAChRalpha7 [DRSC20081] scored calcium entry signal, replicate 1 = 5.07e7; calcium entry signal, replicate 2 = 5.41e7; resting calcium signal, replicate 1 = 2.51e7; resting calcium signal, replicate 2 = 2.46e7; inactive.
Depletion of CheA87a [DRSC14839] resulted in: calcium entry signal, replicate 1 = 2.65e7; calcium entry signal, replicate 2 = 4.83e7; resting calcium signal, replicate 1 = 1.47e7; resting calcium signal, replicate 2 = 6.90e7; inactive.
Against Nepl10 [DRSC07212], the values are calcium entry signal, replicate 1 = 3.12e7; calcium entry signal, replicate 2 = 4.79e7; resting calcium signal, replicate 1 = 1.50e7; resting calcium signal, replicate 2 = 2.23e7; inactive.
Knock-down of CG1090 [DRSC12150] gave: calcium entry signal, replicate 1 = 4.69e7; calcium entry signal, replicate 2 = 5.21e7; resting calcium signal, replicate 1 = 2.18e7; resting calcium signal, replicate 2 = 3.63e7; inactive.
Knock-down of CG1090 [DRSC21604] gave: calcium entry signal, replicate 1 = 3.08e7; calcium entry signal, replicate 2 = 3.18e7; resting calcium signal, replicate 1 = 1.67e7; resting calcium signal, replicate 2 = 1.43e7; inactive.

2 of these entries, set out differently.
{"Gene": "CG31436", "amplicon": "DRSC14661", "calcium entry signal, replicate 1": 3.68e7, "calcium entry signal, replicate 2": 4.33e7, "resting calcium signal, replicate 1": 2.12e7, "resting calcium signal, replicate 2": 1.71e7, "Outcome": "inactive"}
{"Gene": "CG33080", "amplicon": "DRSC18080", "calcium entry signal, replicate 1": 3.44e7, "calcium entry signal, replicate 2": 5.43e7, "resting calcium signal, replicate 1": 1.71e7, "resting calcium signal, replicate 2": 2.33e7, "Outcome": "inactive"}
